## Screening data, single-dose tests

Measurements from “University of Dundee, Small-Polar-MMV Screening Library” (2021), ChEMBL document CHEMBL3988442.

Each number is a percent effect as filed.
The controls that fix the scale are not given in the record; negative values are as filed.
The compounds are a random part of those screened.
Two or more numbers in one place are separate tests of the same structure; such repeats can differ widely.

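Growth of Mycobacterium tuberculosis over 3 days (7H9 medium with glucose and tyloxapol); the read-out is not stated. Concentration: 50 µM. Higher reads as more growth inhibition (inferred: compounds with an IC50 in retests scored well above the rest). About 69,000 compounds were tested under these conditions; 1.1% (about 760) showed 50% or more at least once.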

COCCS(=O)(=O)NC(C)c1ccccc1Br (stereo not shown) read 9.357%. With c1ccc(-n2nnnc2CNCc2ccc3c(c2)OCCO3)cc1 the screen gave 18.79%. CCOc1ccc(Cl)c(C(=O)NC(C)C(N)=O)n1 (stereo not shown) read -6.892% & -1.545%. Result for Cc1ncsc1CCC(=O)N1CCN(CCn2cncn2)CC1 was 3.742%. For CN(C)Cc1cnc(C2CCN(C(=O)c3cccc(Cl)c3)C2)[nH]1 (stereo not shown) the result was -11.92%.

For Cn1ccnc1C(=O)N1CCC2(CCN2Cc2ccc(F)cc2)C1.O=C(O)C(F)(F)F (stereo not shown) the result was 9.384%. Result for CC(C)Nc1cc(N2CCCC3(CN(C)C(=O)O3)C2)ncn1 (stereo not shown) was -3.832%. Result for Fc1cccc(CN2CCC(c3noc(-c4ccccn4)n3)CC2)c1F was 17.87%. Result for Cc1cc(NC(=O)N2CCN(c3nc(C)c(C)s3)CC2)no1 was 29.92%. Result for CCN(Cc1nonc1C)C(=O)c1cnccn1 was 36.37%.

For COc1cccc(CNC(=O)C(C)n2ccnc2C(C)C)c1OC (stereo not shown) the result was -2.05% & 23.19%. Result for CCOc1ccc(Cl)c(C(=O)N2CCN(c3ccncc3)CC2)n1 was 3.811%. For COCCCNC(=O)CCn1ncc2c(Cl)cccc21 the result was -25.75%. O=C(Cn1cccnc1=O)NCCc1ccc2c(c1)OCCO2 read -9.186%. With CCC(=O)N1C[C@@H](C(=O)NC)[C@H](c2ccnc(N3CCCC3)n2)C1.Cl the screen gave -15.02%.

With CC(=O)NCc1ccc(C(=O)N2CCCC2c2cnn(C)c2)s1 (stereo not shown) the screen gave 3.157%. Cc1cc(=O)n2nc(Oc3cccc(I)c3)sc2n1 gave -0.8464%. With O=C(O)C(F)(F)F.[H][C@@]12CCN(S(=O)(=O)c3cccs3)C[C@]1([H])[C@@H](CN(C)C)OC2 the screen gave -46.62%. For CC(=O)N1CCCC2(C1)CN(c1nncs1)CCO2.O=C(O)C(F)(F)F (stereo not shown) the result was 11.99%. For O=C(CN1CCN(CCO)CC1)NCCc1c(F)cccc1F the result was 5.799%.

O=S(=O)(CCN1CCOC(Cn2cccn2)C1)c1ccccc1 (stereo not shown) gave -20.6%. With Cc1ccc2[nH]c(C(=O)N3CCC4(CC3)C(=O)NCCN4C)nc2c1 the screen gave 3.665%. Cc1cc(NC(=O)C(C)Oc2ccc3c(c2)OCO3)no1 (stereo not shown) gave 16.64%. Result for O=C(O)CC(CC(=O)NCCc1ccsc1)c1cccs1 (stereo not shown) was -16.57%. Cc1nc(C2CCCN(C(=O)c3cc(C)sc3C)C2)no1 (stereo not shown) gave 8.387% & 32.72%.

With COc1ccc(C(=O)NCCN2CCC(c3cccs3)CC2)cc1OC the screen gave 0.911%. Result for COc1ccc2c(c1)CC(C1CCOCC1)N(C(=O)c1cnccn1)C2 (stereo not shown) was -11.3%. With Cc1nc(CN(C)C2CCN(Cc3cccc4c3OCCO4)C2)no1 (stereo not shown) the screen gave 9.539%. Cc1cc(CNC(=O)CN2CCCC(Cn3cncn3)C2)ccc1F (stereo not shown) gave 7.379%. CCOC1Sc2nnc(C)n2N=C1c1ccc(F)cc1 (stereo not shown) read 22.04% & -1.529%.

CC(=O)NCc1cc2n(n1)CCN(Cc1ccccc1OC(F)(F)F)C2 gave 11.26%. Cc1ccc(OCC2CCCN(C(=O)CCn3ccccc3=O)C2)cc1 (stereo not shown) read -4.387%. Result for Cn1cc(CN2CCC3(CCCN3S(C)(=O)=O)CC2)cn1 was 32.72%. Cc1cc(C(=O)N2CCC[C@]3(C[C@H](OCC4CC4)CO3)C2)no1 gave -39.42%. COCC(=O)N[C@@H]1CN(Cc2c[nH]nc2-c2cccs2)C[C@H]1O read -12.33%.

For COCc1nc(C(=O)N2CCCC(n3cccn3)C2)cs1 (stereo not shown) the result was 3.146%. Result for CC(C)c1nn(C)c(N(C)C)c1CNC1CCN(CC2CC2)CC1 was -1.796% & -8.766%. COc1ccc(C(O)CNC(=O)Nc2cc(C)nn2C)cc1 (stereo not shown) gave -26.64%. With Cc1cc(C)nc(C2(C)CCCN2CCO)n1 (stereo not shown) the screen gave -13.43%. C=C(C)COc1cccc(CNCc2nc3ccccc3c(=O)[nH]2)c1 read 24.1% & 10.01%.

With O=C(O)C(F)(F)F.[H][C@@]12CCN(CC(C)C)[C@@]1([H])CCN2S(=O)(=O)c1cn(C)cn1 the screen gave 34.65%. With CCc1nc(CN2CCCC(N(C)CCn3cccn3)C2)no1 (stereo not shown) the screen gave -11.97%. CCC(=O)N1CCCC1c1nccnc1Nc1ncccn1 (stereo not shown) read -4.197%. With CCN1CC(C(=O)NCCc2csc(-c3ccncc3)n2)CC1=O (stereo not shown) the screen gave 5.803%. With COCCOc1cccc(C(=O)N2CCCCC2c2nccs2)c1 (stereo not shown) the screen gave -16.96%.

With CC(C)(C)c1cc(NC(=O)CN2CCCC(Cn3cncn3)C2)on1 (stereo not shown) the screen gave 18.26%. O=C(c1ccccn1)N1CCN(C(c2ccccc2)C(F)(F)F)CC1 (stereo not shown) read -31.26% & -8.963%. With Cc1ccc(CN2CCC3(CC2)C(=O)N(C)c2ccccc23)s1.O=C(O)C(F)(F)F the screen gave 36.39%. Cn1ncc(C(=O)N2CCN(C(=O)c3ccco3)CC2)c1Cl gave 2.272%. CSCC[C@H](N)C(=O)NCc1cc2n(n1)CCCN(C1CCCCC1)C2 gave -2.087% & 0.1641%.

CS(=O)(=O)c1cc(Cl)cnc1C1CCN(C(=O)C2CCCO2)CC1 (stereo not shown) read 7.818%. CSCCC(=O)N1CC[C@@H](N2CCN(c3ccccc3F)CC2)[C@H](O)C1 gave -5.634% & -5.525%. With CCCNC(=O)c1ncn2c1CN(CC(C)C)S(=O)(=O)c1ccccc1-2 the screen gave -27.53%. Result for O=C(O)C(F)(F)F.[H][C@]12C[C@H](C(=O)NC)N(C)[C@@]1([H])CN(S(=O)(=O)c1ccc(OC)cc1)C2 was -4.746% & -28.11%. COc1ccc(C(CNC(=O)NCc2csc(C)n2)N(C)C)cc1 (stereo not shown) gave 3.12% & -46.91%.

For CNc1cncc(C2CCCN2S(=O)(=O)c2ccc(F)cc2)n1 (stereo not shown) the result was 21.72%. With CCn1cnnc1CNC(=O)N1CCC(O)CC1 the screen gave 7.181%. CC(C)N(C)S(=O)(=O)N(C)Cc1cnn(Cc2ccccc2)c1 read 25.4%. CCN(CC)C(=O)c1ccn(COc2c(Cl)cccc2Cl)n1 read 27.44%. CC(C)c1nnc2sc(CC3CN(C(C)C)CCO3)nn12 (stereo not shown) read -4.695%.

The first 8 entries again:

COCCS(=O)(=O)NC(C)c1ccccc1Br (stereo not shown) read 9.357%.
c1ccc(-n2nnnc2CNCc2ccc3c(c2)OCCO3)cc1 read 18.79%.
CCOc1ccc(Cl)c(C(=O)NC(C)C(N)=O)n1 (stereo not shown) read -6.892% & -1.545%.
Cc1ncsc1CCC(=O)N1CCN(CCn2cncn2)CC1 read 3.742%.
CN(C)Cc1cnc(C2CCN(C(=O)c3cccc(Cl)c3)C2)[nH]1 (stereo not shown) read -11.92%.
Cn1ccnc1C(=O)N1CCC2(CCN2Cc2ccc(F)cc2)C1.O=C(O)C(F)(F)F (stereo not shown) read 9.384%.
CC(C)Nc1cc(N2CCCC3(CN(C)C(=O)O3)C2)ncn1 (stereo not shown) read -3.832%.
Fc1cccc(CN2CCC(c3noc(-c4ccccn4)n3)CC2)c1F read 17.87%.